Assay results taken from PMC8215223.
These are yes or no findings as the source states them, for the method shown. Binding seen in cells or lysates may run through a third protein. Some results given as binding are weak or reduced against the parent protein; the word gives no strength. Sequences can lack the tags named with a protein.

Legend:
Assay in all cases: co-IP; HeLa extracts in Buffer H (sonicated, 15,000 x g); 2 hr at 4°C with A/G-agarose beads pre-linked with antibody; washed with coIP-washing buffer; Western blot; cells left non-treated, treated with 100 ng/mL nocodazole for 16 hr, or released from a thymidine block
GFP-HOOK3 S238A (human) = target: T1, GFP-HOOK3 S238A (human) (UniProt Q86VS8)
T1 sequence: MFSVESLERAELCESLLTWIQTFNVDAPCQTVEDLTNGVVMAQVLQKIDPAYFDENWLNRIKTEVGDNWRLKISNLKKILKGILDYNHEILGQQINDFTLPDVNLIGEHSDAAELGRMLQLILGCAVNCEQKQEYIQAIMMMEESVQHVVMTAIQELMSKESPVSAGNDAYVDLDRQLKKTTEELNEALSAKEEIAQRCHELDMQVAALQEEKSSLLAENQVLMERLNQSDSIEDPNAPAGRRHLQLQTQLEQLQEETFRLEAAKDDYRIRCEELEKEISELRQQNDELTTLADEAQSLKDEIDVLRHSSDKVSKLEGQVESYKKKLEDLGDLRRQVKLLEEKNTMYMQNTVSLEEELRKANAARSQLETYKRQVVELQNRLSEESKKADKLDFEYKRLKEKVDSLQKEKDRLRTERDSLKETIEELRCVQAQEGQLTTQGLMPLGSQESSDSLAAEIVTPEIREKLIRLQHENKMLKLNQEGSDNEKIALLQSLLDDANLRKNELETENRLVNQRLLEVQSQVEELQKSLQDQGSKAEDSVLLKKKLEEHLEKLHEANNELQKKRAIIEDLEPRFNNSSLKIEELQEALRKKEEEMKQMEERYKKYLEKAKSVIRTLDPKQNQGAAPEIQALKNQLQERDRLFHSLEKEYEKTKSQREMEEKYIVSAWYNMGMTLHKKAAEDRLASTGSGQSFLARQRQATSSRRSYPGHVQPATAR

GFP-HOOK3 S707A (human) = target: T2, GFP-HOOK3 S707A (human) (UniProt Q86VS8)
T2 sequence: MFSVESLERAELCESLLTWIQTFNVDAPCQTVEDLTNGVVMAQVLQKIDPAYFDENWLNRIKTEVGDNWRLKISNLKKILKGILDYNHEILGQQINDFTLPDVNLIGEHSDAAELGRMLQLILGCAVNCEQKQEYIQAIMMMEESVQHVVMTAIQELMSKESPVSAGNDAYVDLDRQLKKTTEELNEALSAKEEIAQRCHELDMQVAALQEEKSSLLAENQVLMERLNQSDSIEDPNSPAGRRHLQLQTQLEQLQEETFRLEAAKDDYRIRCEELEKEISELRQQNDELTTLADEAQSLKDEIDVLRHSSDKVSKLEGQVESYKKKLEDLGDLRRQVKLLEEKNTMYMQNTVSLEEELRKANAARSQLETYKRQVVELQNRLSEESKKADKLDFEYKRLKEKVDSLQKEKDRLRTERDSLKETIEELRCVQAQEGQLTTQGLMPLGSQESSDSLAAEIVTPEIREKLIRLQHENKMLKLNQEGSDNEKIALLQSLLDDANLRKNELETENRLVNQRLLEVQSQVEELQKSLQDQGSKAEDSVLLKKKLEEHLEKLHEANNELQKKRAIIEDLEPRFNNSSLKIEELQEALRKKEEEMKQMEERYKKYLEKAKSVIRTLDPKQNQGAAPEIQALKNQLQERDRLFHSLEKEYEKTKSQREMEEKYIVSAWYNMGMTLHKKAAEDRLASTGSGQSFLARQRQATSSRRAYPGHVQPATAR

GFP-HOOK3 2SE (human) = target: T3, GFP-HOOK3 2SE (human) (UniProt Q86VS8)
T3 sequence: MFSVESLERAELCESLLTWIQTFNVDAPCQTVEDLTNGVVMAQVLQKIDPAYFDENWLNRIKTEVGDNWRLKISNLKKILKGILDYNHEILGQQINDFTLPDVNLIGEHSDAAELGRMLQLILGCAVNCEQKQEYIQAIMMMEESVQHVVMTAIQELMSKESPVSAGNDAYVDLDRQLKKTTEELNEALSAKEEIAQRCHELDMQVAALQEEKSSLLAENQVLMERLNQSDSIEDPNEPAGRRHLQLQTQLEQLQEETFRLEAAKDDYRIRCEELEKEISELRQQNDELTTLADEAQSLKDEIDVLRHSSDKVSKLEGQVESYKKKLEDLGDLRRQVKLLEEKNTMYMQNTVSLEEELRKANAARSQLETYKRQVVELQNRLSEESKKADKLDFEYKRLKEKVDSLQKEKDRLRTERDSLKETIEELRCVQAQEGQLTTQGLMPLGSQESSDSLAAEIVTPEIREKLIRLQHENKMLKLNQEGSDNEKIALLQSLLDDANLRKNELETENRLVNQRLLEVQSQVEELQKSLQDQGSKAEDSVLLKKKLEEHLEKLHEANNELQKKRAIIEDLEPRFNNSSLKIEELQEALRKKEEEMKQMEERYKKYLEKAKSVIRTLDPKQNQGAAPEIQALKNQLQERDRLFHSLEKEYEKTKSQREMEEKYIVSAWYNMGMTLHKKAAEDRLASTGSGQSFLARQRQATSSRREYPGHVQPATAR

Measured: binding

B1: AuroraA (endogenous) (enzyme, UniProt O14965 1-403)
chain: MDRSKENCISGPVKATAPVGGPKRVLVTQQFPCQNPLPVNSGQAQRVLCPSNSSQRIPLQAQKLVSSHKPVQNQKQKQLQATSVPHPVSRPLNNTQKSKQPLPSAPENNPEEELASKQKNEESKKRQWALEDFEIGRPLGKGKFGNVYLAREKQSKFILALKVLFKAQLEKAGVEHQLRREVEIQSHLRHPNILRLYGYFHDATRVYLILEYAPLGTVYRELQKLSKFDEQRTATYITELANALSYCHSKRVIHRDIKPENLLLGSAGELKIADFGWSVHAPSSRRTTLCGTLDYLPPEMIEGRMHDEKVDLWSLGVLCYEFLVGKPPFEANTYQETYKRISRVEFTFPDFVTEGARDLISRLLKHNPSQRPMLREVLEHPWITANSSKPSNCQNKESASKQS
binds: all assays above
